Source: paper PMC7819943, “Rice protein-binding microarrays: a tool to detect cis-acting elements near promoter regions in rice”
The list shows a part of the results.

Amino acid sequences for entries named in this document (tags omitted).
UniProt Q0JBA9, entry or part of it: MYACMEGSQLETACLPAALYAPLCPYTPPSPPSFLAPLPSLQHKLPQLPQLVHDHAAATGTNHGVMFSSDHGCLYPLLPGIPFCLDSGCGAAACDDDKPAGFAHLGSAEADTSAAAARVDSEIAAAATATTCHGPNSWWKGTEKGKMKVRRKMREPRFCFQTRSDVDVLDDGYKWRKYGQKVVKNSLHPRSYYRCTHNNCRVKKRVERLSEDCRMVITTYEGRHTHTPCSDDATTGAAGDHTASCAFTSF

What follows are sequences tested against OsWRKY34 (Oryza sativa, UniProt Q0JBA9 1-250) (assay: protein-binding microarray (RPBM); PBS, 2% BSA, 51.3 ng/ul salmon testes DNA, 50 uM zinc acetate, 200 nM TF, 25 C, 1 h; high values mean tight binding). Settings: protein: recombinant; tags: N-terminal polyhistidine and DsRed monomer fusion (pET32a); label: CyDye5-dUTP incorporated in the synthesized complementary strand; 3' TTTTT single-stranded linker to array surface; dsDNA, one strand shown.
In short: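 The binding signal is fluorescence intensity per feature, in arbitrary units, read on an Axon 4000B scanner. Polyhistidine- and DsRed-tagged transcription factors (N-terminal fusions) from E. coli BL21-CodonPlus were purified on Ni–NTA and applied at 200 nM for 1 h at 25 °C to a double-stranded, BSA-blocked custom Agilent array in buffer with 50 µM zinc acetate.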
“TCTCAACTCAGGGATGTCCTATTTTCTTCAGTCATACTACCGGAGTCACCTAGTGCAG” was tested, and the binding signal was 8200 fluorescence intensity (a.u.). For “CTACTTTTCTACTTTATTTATGTCTTATTATAGAGTGACACGGAGTCACCTAGTGCAG”, the binding signal was 8280 fluorescence intensity (a.u.). “GGCGGTATCGACGAAGAATCTCGGGGCGGTGGGGAGGTTTCGGAGTCACCTAGTGCAG” was tested, and the binding signal was 17700 fluorescence intensity (a.u.). “ATTATGTGTTGCATGCCTCTTGCTTGTCATTCTTTACGATCGGAGTCACCTAGTGCAG” was tested, and the binding signal was 12000 fluorescence intensity (a.u.). In the case of “GTGGGTGTCTGTGTCTTTGAGTAGTCGTCATTCAATCGAGCGGAGTCACCTAGTGCAG”, the binding signal is reported as 9400 fluorescence intensity (a.u.). With “ACGTCGCTATTCTTTTGCAACCACGATCCCACGTTCCCATCGGAGTCACCTAGTGCAG” the binding signal was 10700 fluorescence intensity (a.u.). For “CTCTGTCCGTCCATTCACCCATCCATGTCCATCCATCTATCGGAGTCACCTAGTGCAG”, the binding signal was 11000 fluorescence intensity (a.u.). In the case of “CCACCTCATTTCATCTTAGCTCTTCATTCATTTTCATTTTCGGAGTCACCTAGTGCAG”, the binding signal is reported as 8630 fluorescence intensity (a.u.). With “TGTGGATGGCGGGGCGAGGCGGAATGGGGCGAATGCGGCGCGGAGTCACCTAGTGCAG” the binding signal was 8240 fluorescence intensity (a.u.). In the case of “GCACACTCGTCCGCTTCCGTCTCATTCTCTCGTGGACGCGCGGAGTCACCTAGTGCAG”, the binding signal is reported as 9950 fluorescence intensity (a.u.). In the case of “AAAGCCACCACACTCCCTCGCTGACCCCAGTGGAGCTGCTCGGAGTCACCTAGTGCAG”, the binding signal is reported as 8390 fluorescence intensity (a.u.). “CCGCACCTCTCCATCCTACCGCCGCTCGCGCCCCTCTCGCCGGAGTCACCTAGTGCAG” was tested, and the binding signal was 8750 fluorescence intensity (a.u.). For “CAGTTTGTACCATATATATATCACAGATTATTCACAGCATCGGAGTCACCTAGTGCAG”, the binding signal was 8100 fluorescence intensity (a.u.). With “GGTGGTGGTTGAGGTTGAGGTTGACGAGGGGTTCTAGGGTCGGAGTCACCTAGTGCAG” the binding signal was 9040 fluorescence intensity (a.u.). “AAGCCAGTGAATGCCTCTGTAACTTTTCTTTATTATTCTTCGGAGTCACCTAGTGCAG” was tested, and the binding signal was 8680 fluorescence intensity (a.u.). With “GACGAGCCTTATCTCCAATCCGGATTACACATCGCGTCGCCGGAGTCACCTAGTGCAG” the binding signal was 10800 fluorescence intensity (a.u.). With “CCGTACAACATTAACTCCACCGCCGCCTCCTTTCTTTCCTCGGAGTCACCTAGTGCAG” the binding signal was 9250 fluorescence intensity (a.u.). For “CTCCAGGTCTCCCACCCGTTGACCCGAGCTCCCCTACTCTCGGAGTCACCTAGTGCAG”, the binding signal was 11000 fluorescence intensity (a.u.). In the case of “GTTAAAACTCTACCTACTTAATTAAGTATTTGCTATTTTTCGGAGTCACCTAGTGCAG”, the binding signal is reported as 8700 fluorescence intensity (a.u.). For “CATCTACAGGTAATCTATATTAAACCCTGGCTATTGAGAACGGAGTCACCTAGTGCAG”, the binding signal was 8340 fluorescence intensity (a.u.). With “GTTGAGGTGGTCGGTAGCTAGGTAGCTAGGCGCGCGCGGCCGGAGTCACCTAGTGCAG” the binding signal was 8160 fluorescence intensity (a.u.). For “GCTCACCAAACGCATCGCATGGCCCACTTATTTCCGACCACGGAGTCACCTAGTGCAG”, the binding signal was 8830 fluorescence intensity (a.u.). For “AACAAGTCTGACTTATTTGACGACTGATTGGTTGGGGTCACGGAGTCACCTAGTGCAG”, the binding signal was 8280 fluorescence intensity (a.u.). “GATTCGTTGTTTTTTTTCTTCCTCTTGGTGTGTAGGGATGCGGAGTCACCTAGTGCAG” was tested, and the binding signal was 11000 fluorescence intensity (a.u.). With “ATACTGTCATAGGATCTCGAGTACACCTGTTTTACAAGTTCGGAGTCACCTAGTGCAG” the binding signal was 8860 fluorescence intensity (a.u.). In the case of “GCTAAACTGTACCCATGTTCTTCAGCATTTCTTTAATCTACGGAGTCACCTAGTGCAG”, the binding signal is reported as 10400 fluorescence intensity (a.u.). For “CCGCACGAGACTGAAGCCTAATCTTTTCGCTTACGTTCATCGGAGTCACCTAGTGCAG”, the binding signal was 11300 fluorescence intensity (a.u.). In the case of “AGCTCATGGATTTCTTCTCACGTGAGGCCCATATGTATTGCGGAGTCACCTAGTGCAG”, the binding signal is reported as 8660 fluorescence intensity (a.u.). With “CGGTTAGATTACATTGGTACCTCATGATATCTCGTACCTCCGGAGTCACCTAGTGCAG” the binding signal was 8660 fluorescence intensity (a.u.). “CTATATATAGCCTTTTTTATACATGAAGTTTCTTTATATACGGAGTCACCTAGTGCAG” was tested, and the binding signal was 8330 fluorescence intensity (a.u.). In the case of “ACCGTGTCGAGCTATGTCTCCTCATCCTCGCTATGTTTCACGGAGTCACCTAGTGCAG”, the binding signal is reported as 14800 fluorescence intensity (a.u.). With “TCGTTGAACGCGCCCACCAGCTCCGCCACCAGCCGCCCTCCGGAGTCACCTAGTGCAG” the binding signal was 9490 fluorescence intensity (a.u.). With “ATAATATATAATCAAACAAAAAAATGGACTATAATCTCTCCGGAGTCACCTAGTGCAG” the binding signal was 64400 fluorescence intensity (a.u.). In the case of “CAACATATTATTTCGCTCTATTTTTATTGTATGTTGCATCCGGAGTCACCTAGTGCAG”, the binding signal is reported as 11300 fluorescence intensity (a.u.). For “CTCAGAATCGTCAATGGCATCGCCTCTCATTTCGCGTCGACGGAGTCACCTAGTGCAG”, the binding signal was 9320 fluorescence intensity (a.u.). For “ACCATCTCTCGCTGCATTTACAGTTTTTTTGGGCCAAATGCGGAGTCACCTAGTGCAG”, the binding signal was 12500 fluorescence intensity (a.u.). With “GATTGGGAGGTATTCCGGTGTTTTTTTGGTGCTAAATTTTCGGAGTCACCTAGTGCAG” the binding signal was 9040 fluorescence intensity (a.u.). For “TTATTATTTGCATTATTTCCTTAGGGTTTACTCCTGATTTCGGAGTCACCTAGTGCAG”, the binding signal was 8370 fluorescence intensity (a.u.). “ATCCATCCTGCACAACCGAATCGATTGATGGTCATTTCAACGGAGTCACCTAGTGCAG” was tested, and the binding signal was 8260 fluorescence intensity (a.u.). In the case of “ATATACAGATTTCGATCGGCGACGTTAGTGATCAGCTGGGCGGAGTCACCTAGTGCAG”, the binding signal is reported as 35200 fluorescence intensity (a.u.). In the case of “CGTGCATATGGGTCATCCCACTACCATCCCTATTCCCTAACGGAGTCACCTAGTGCAG”, the binding signal is reported as 8230 fluorescence intensity (a.u.). For “TTATTCCTTACTATTCGCGTCTTTTACTAGGGCAGGATATCGGAGTCACCTAGTGCAG”, the binding signal was 9020 fluorescence intensity (a.u.).
